From PubChem BioAssay AID2551 (National Center for Advancing Translational Sciences (NCATS), 2010)
About 17,000 (5.5%) of roughly 310,000 compounds were called active. Inconclusive means that the source gave no clear call. Such entries were picked first, then a sample of the others. Calls come from the whole dose curve; as a rule, active = well fitted inhibition curve with a large enough effect; inconclusive = small, poorly fitted or top-dose-only effect, or effect the other way; inactive = no such curve, though single readings can be large or run the other way. Where the call is inconclusive, the potency comes from a doubtful curve fit.

By UniProt entry, the sequences of proteins in these tests, tags left out. Where a name states a change or a piece, a line headed by the entry shows the natural chain unless it says otherwise.
UniProt P51450: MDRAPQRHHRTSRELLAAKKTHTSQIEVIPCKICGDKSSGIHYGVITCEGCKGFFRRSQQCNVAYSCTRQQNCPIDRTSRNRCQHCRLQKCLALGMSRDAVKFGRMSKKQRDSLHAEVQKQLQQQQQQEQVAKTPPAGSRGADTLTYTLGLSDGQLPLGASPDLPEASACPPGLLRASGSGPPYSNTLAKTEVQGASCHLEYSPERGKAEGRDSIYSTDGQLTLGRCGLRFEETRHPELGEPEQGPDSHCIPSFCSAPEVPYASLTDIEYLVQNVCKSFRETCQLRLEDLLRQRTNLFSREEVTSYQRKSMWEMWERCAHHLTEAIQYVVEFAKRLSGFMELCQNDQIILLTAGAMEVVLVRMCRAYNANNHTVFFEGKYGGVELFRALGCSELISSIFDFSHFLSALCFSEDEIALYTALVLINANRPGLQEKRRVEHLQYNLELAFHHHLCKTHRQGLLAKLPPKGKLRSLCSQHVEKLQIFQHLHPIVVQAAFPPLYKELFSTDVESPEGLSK

target: Nuclear receptor ROR-gamma (Mus musculus) (UniProt P51450); experiment: qHTS for inhibitors of ROR gamma transcriptional activity; conditions: Drosophila S2 Gal4-RORgamma UAS-luciferase reporter, 20 h; activity change, negative = inhibition: at 53.6 µM (top of the series); note: nearly all actives have a fitted effect of over 60% in size
How it was run: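 Stable Schneider cell line, Gal4 DNA-binding domain fused to ROR gamma, UAS-luciferase. Cmpd 1 hr RT → CuSO4 700 uM final → 20 hr RT → luciferase reagent 10 min → luminescence.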
% is set by controls: 0 for no effect and ±100 for the full control effect; potency is the fitted concentration of half-maximal effect.

SMILES	Potency	activity change, negative = inhibition
COc1ccc2c(c1)CC/C2=N\OC(=O)c1ccccc1C	active: 3.98 µM	–
CCOC(=O)/C=C/C(=O)Nc1ccc(S(=O)(=O)N(C)c2ccccc2)cc1	inconclusive: 35.5 µM [inhibitor, single point]	–
Cc1cc(Oc2nc3ccccn3c(=O)c2/C=C(\C#N)C(=O)NC2CCS(=O)(=O)C2)ccc1Cl (configuration not stated)	–	inactive: -7.58%
Cc1ccc(C(=O)Sc2cccccc2=O)cc1	active: 1.78 µM	–
COc1ccc(-c2nc(-c3ccc(NC(=O)c4ccc(Br)o4)cc3)no2)cc1OC	inconclusive: 20 µM [inhibitor, single point]	–
CS(=O)(=O)Nc1ccc(C2=NN(C(=O)CCCC(=O)O)C(c3cccs3)C2)cc1 (configuration not stated)	–	inactive: 30%
Cc1cccc(OCC(=O)NC2CC(C)(C)NC(C)(C)C2)c1	inconclusive: 35.5 µM [inhibitor, single point]	–
S=C(c1ccc(Cl)cc1)N1CCN(Cc2ccccc2)CC1	–	inactive: 2.24%
Cn1c(=O)c2c(SCC(=O)N3CCN(c4ccccc4)CC3)nc(C3CC3)nc2n(C)c1=O	–	inactive: 6.15%
CCN(CC)C(=O)CSc1nc2ccccc2c(=O)n1CC	inconclusive: 35.5 µM [inhibitor, single point]	–
FC(F)Sc1ccc(-n2cc(-c3ccccc3)[n+]3c2CCC3)cc1	–	inactive: 7.04%
CC(=O)N[C@@H](Cc1c[nH]c2ccccc12)C(=O)OCc1cc(C(F)(F)F)cc(C(F)(F)F)c1	inconclusive: 28.2 µM [activator, partial curve]	–
COc1cc2cc(C)c3nnc(SCC(=O)Nc4cc(C)on4)n3c2cc1OC	–	inactive: 35.1%
Cc1ccc[n+](CC(=O)Nc2nc3ccccc3s2)c1	–	inactive: 27%
C=CCC1(C#N)C(=S)NC(C)=C(C(=O)OCC)C1c1ccccc1 (configuration not stated)	active: 10 µM	–
O=c1[nH]c(Cc2ccc(F)cc2)nc2scc(-c3ccc(F)cc3)c12	inconclusive: 11.2 µM [activator, partial curve]	–
CCc1c(C(C)S(=O)(=O)c2ccc(C)cc2)[nH]c(=O)n1-c1ccc(C)cc1 (configuration not stated)	inconclusive: 35.5 µM [inhibitor, single point]	–
CCCCN(C(=O)C1CC(=O)N(Cc2ccc(C)cc2)C1)c1c(N)n(CC(C)C)c(=O)[nH]c1=O (configuration not stated)	–	inactive: -7.24%
Cc1nc2ccccc2n1CSc1ccccc1	active: 14.1 µM	–
CC(C)COc1cccc(C(=O)NC(=S)Nc2cccc(NC(=O)c3ccccc3Cl)c2)c1	active: 6.31 µM	–
Oc1cccc2ccc(Nc3ccccn3)nc12	–	inactive: 12.3%
CC(C)(C)c1ccc(OCCC(=O)NC2=NCCS2)cc1	active: 3.55 µM	–
O=C(NOC(=O)c1c(F)cccc1Cl)c1ccc(Cl)c(Cl)c1	–	inactive: 32.6%
COc1cccc(OCC(=O)Nc2ccncc2)c1	inconclusive: 12.6 µM [activator, single point]	–
Cc1ccc2c(c1)c1c3n2CCNC3CCC1 (configuration not stated)	inconclusive: 2 µM [inhibitor, partial curve]	–
CC1CCN(CC(=O)Nc2cccc(Cl)c2)CC1	–	inactive: 24.5%

SMILES	Potency	activity change, negative = inhibition
O=C(O)Cn1c2ccccc2c2n[nH]c(=S)nc21	–	inactive: -34.9% [at 1.91 µM]
COC(=O)NC1CCC(NC(=O)OC)CC1 (configuration not stated)	–	inactive: -0.741%
COc1ccccc1CCC(=O)OCC(=O)Nc1ccc(C(N)=O)cc1	–	inactive: 7.69%
CCCCNC(=S)NNC(=O)c1sccc1C	active: 1.41 µM	–
CCCC(=O)c1ccc(N2CCN(S(=O)(=O)c3ccccc3)CC2)c(F)c1	inconclusive: 10 µM [activator, partial curve]	–
COC(=O)C1=C(C)N(Cc2ccco2)C(=O)N[C@H]1c1cccc(C(F)(F)F)c1	inconclusive: 15.8 µM [activator, single point]	–
CCOC(=O)CC1CCCCN1Cc1nc(-c2ccc(F)c(OC)c2)oc1C (configuration not stated)	active: 3.55 µM	–
S=c1[nH]nc(Cc2ccccc2)n1-c1ccccc1	active: 11.2 µM	–
O=C(CN1CCN(c2ccc(Cl)cc2)CC1)NCc1cccs1	–	inactive: 11.9%
Cc1ccccc1CN(C)CC(=O)Nc1cccc(S(=O)(=O)N(C)c2ccccc2)c1	inconclusive: 35.5 µM [activator, single point]	–
CCCCOc1ccc(-c2cc(C(=O)NNC(=S)NCC)c3ccccc3n2)cc1	active: 5.01 µM	–
O=C(NN=C1CCCC1)c1cc(-c2ccc(F)cc2)nc2ccccc12	inconclusive: 15.8 µM [inhibitor, single point]	–
CCCCCCNC(=O)c1cccc(-c2ccc(C)c3ccccc23)n1	inconclusive: 31.6 µM [activator, single point]	–
O=C(NC(=S)NC1CCCC1)c1ccccc1	active: 7.08 µM	–
Cc1ccc(SCc2ccc(C(=O)N3CCCCC3)cc2)cc1	inconclusive: 14.1 µM [activator, partial curve]	–
CC1CN(c2nc3ccccc3cc2-c2ccccc2)CC(C)O1 (configuration not stated)	–	inactive: -13%
c1ccc2c(c1)ncn2CCCOc1ccc2c(c1)CCC2	inconclusive: 35.5 µM [inhibitor, single point]	–
COc1cc(NC(=S)Nc2ccc(N(C)C(C)=O)cc2)cc(OC)c1	inconclusive: 35.5 µM [inhibitor, single point]	–
CNC(=S)/N=C/NOCc1c(Cl)cccc1Cl	inconclusive: 35.5 µM [inhibitor, single point]	–
Cc1csc(NC(=O)c2ccc3c(=O)n4c(nc3c2)CCCCC4)n1	inconclusive: 8.91 µM [activator, partial curve]	–
CC(=O)CCn1c(=O)n(CCC(C)=O)c(=O)n(CCC(C)=O)c1=O	inconclusive: 0.398 µM [inhibitor, full curve, poor fit]	–
COCCC1CCCCN1C(=O)c1cc(COc2cccc(C(C)=O)c2)on1 (configuration not stated)	inconclusive: 11.2 µM [activator, single point]	–
Cn1cccc1/C=C1\CCc2ccccc2C1=O	active: 12.6 µM	–
O=c1c2ccccc2[nH]c(=S)n1CCc1ccccc1	active: 1.58 µM	–
C/C(=N\NC(=O)c1ccc(-c2ccccc2)cc1)c1cccc(N)c1	active: 12.6 µM	–
O=S(=O)(c1cccs1)N1CCN(C/C=C/c2ccccc2)CC1	inconclusive: 15.8 µM [activator, single point]	–

3 records drawn at random from the list so far:
SMILES	Potency	activity change, negative = inhibition
COC(=O)NC1CCC(NC(=O)OC)CC1 (configuration not stated)	–	inactive: -0.741%
Cc1ccc(SCc2ccc(C(=O)N3CCCCC3)cc2)cc1	inconclusive: 14.1 µM [activator, partial curve]	–
CC(C)COc1cccc(C(=O)NC(=S)Nc2cccc(NC(=O)c3ccccc3Cl)c2)c1	active: 6.31 µM	–
